Reference: patent publication US20250042957A1
Results are given in words; binding and its absence hold for the method and conditions named. Some results given as binding are weak or reduced against the parent protein; the word gives no strength.

The chains behind the UniProt entries cited, without tags or fusion partners. Where a name states a change or a piece, a line headed by the entry shows the natural chain unless it says otherwise. A line that says so, or that is headed by a name, gives the form on record, which may keep a tag or linker.
UniProt P07766: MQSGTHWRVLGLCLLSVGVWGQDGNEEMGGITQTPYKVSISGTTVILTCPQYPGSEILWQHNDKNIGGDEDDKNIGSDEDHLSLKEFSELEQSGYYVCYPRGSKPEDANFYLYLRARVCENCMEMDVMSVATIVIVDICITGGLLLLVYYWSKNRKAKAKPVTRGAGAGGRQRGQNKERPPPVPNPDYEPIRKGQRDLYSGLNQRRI
UniProt P09693: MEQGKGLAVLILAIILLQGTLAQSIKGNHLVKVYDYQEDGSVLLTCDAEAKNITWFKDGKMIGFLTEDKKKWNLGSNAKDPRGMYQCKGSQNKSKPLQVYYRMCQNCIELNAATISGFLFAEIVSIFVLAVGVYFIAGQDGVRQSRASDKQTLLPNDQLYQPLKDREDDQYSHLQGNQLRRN
VEGF165 (P15692, form named): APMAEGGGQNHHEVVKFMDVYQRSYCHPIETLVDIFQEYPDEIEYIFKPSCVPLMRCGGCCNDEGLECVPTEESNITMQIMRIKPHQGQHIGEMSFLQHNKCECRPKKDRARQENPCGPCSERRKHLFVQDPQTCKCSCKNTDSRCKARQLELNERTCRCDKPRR

Key:
[1] = molecular target: T1, human CD3 on Jurkat cells (human) (UniProt P07766+P09693); assay: flow cytometry on Jurkat cells, control construct titrated with 100 nM soluble VEGF, anti-penta-His Alexa Fluor 488 detection
[2] = molecular target: T1, human CD3 on Jurkat cells (human); assay: flow cytometry on Jurkat cells, anti-penta-His detection
[3] = molecular target: VEGF165 (UniProt P15692); assay: ELISA, biotinylated VEGF165 on neutravidin plate, anti-His detection; residual binding of the closed form
[4] = molecular target: T1, human CD3 on Jurkat cells (human); assay: flow cytometry on Jurkat cells, construct titrated without VEGF or with 100 nM or 400 nM soluble VEGF, anti-penta-His Alexa Fluor 488 detection
[5] = molecular target: T1, human CD3 on Jurkat cells (human); assay: flow cytometry on Jurkat cells, anti-penta-His detection, with or without VEGF (100 or 400 nM)
[6] = molecular target: VEGF165 (UniProt P15692); assay: ELISA: plate-bound biotinylated VEGF165, His-tagged construct titrated, no soluble VEGF, anti-His-HRP detection

binding [1] | binding [2] | binding [3] | binding [4] | binding [5] | binding [6] | Binder
binds | binds |  |  |  |  | Format B control construct ([α-VEGF binder]-[α-CD123 binder]-[α-CD3 binder]) (designed binder) MRGSHHHHHHGSDLDKKLLEAARAGQDDEVRILLKAGADVNAKDSTGWTPLHLAAPWGHPEIVEVLLKAGADVNAKDFQGWTPLHLAAAAGHLEIVEVLLKAGADVNAQDKSGKTPADLAADAGHEDIAEVLQKAAGSPTPTPTTPTPTPTTPTPTPTGSDLGKKLLQAARAGQLDEVRELLKAGADVNAKDQYGRTPLHLAAIKGHLEIVEVLLKAGADVNAKDSLGYTPLHLAAVEGPLEIVEVLLKAGADVNAKDAYGQTPLHIAAAWGHLEIVEVLLKAVADVNAQDKSGKTPADLAARAGHQDIAEVLQKAAGSPTPTPTTPTPTPTTPTPTPTGSDLGQKLLEAAWAGQDDEVRELLKAGADVNAKNSRGWTPLHTAAQTGHLEIFEVLLKAGADVNAKNDKRVTPLHLAAALGHLEIVEVLLKAGADVNARDSWGTTPADLAAKYGHQDIAEVLQKAA
 |  | binds | binds | binds | binds | Switchdrug DARPin 17-B (designed binder) MRGSHHHHHHGSDLGKKLLQAARAGQLDEVRELLKAGADVNAKDSTGWTPLHLAAPWGHPEIVEVLLKAGADVNAKDFQGWTPLHLAAAAGHLEIVEVLLKAGADVNAKDWLGWTPLHLAASHGHLEIVEVLLKAGADVNAQDKSGKTPADLAARAGHQDIAEVLQKAAGSPTPTPTTPTPTPTTPTPTPTGSDLGKKLLQAARAGQLDEVRELLKAGADVNAKDQYGRTPLHLAAIKGHLEIVEVLLKAGADVNAKDSLGYTPLHLAAVEGPLEIVEVLLKAGADVNAKDAYGQTPLHIAAAWGHLEIVEVLLKAVADVNAQDKSGKTPADLAARAGHQDIAEVLQKAAGSPTPTPTTPTPTPTTPTPTPTGSDLGQKLLEAAWAGQDDEVRELLKAGADVNAKNSRGWTPLHTAAQTGHLEIFEVLLKAGADVNAKNDKRVTPLHLAAALGHLEIVEVLLKAGADVNARDSWGTTPADLAAKYGHQDIAEVLQKAA
